The list shows only some results of the screen, not a fair sample: it is rich in T/C values a quarter to a half above the control, in often repeated tests (any T/C) and in doses without a T/C. Further doses and runs are listed elsewhere. T/C is the treated group as % of the vehicle group. Schedule codes are those of the source, taken here to give the interval after Q, in days (D) or hours (H), and the number of doses after X. Some T/C values are followed by the survivors on the day toxicity was checked, most often the fifth; where none is given, no animal had died by that day. Some doses have a count of surviving animals in place of a T/C: the source files T/C as zero there, which appears to mark a toxic dose or a test without result, not a measured value. Counts of survivors are from the toxicity check (mostly the fifth day) where no day follows; animals may have died later. Some entries were tested several times; the results are listed from low to high.
System: BDF1 mice, colon carcinoma 38 sc, T/C %
Test: NCI In Vivo Anticancer Drug Screen. Data for tumor model Colon Carcinoma 38 (subcutaneous) in B6D2F1 (BDF1) mice
Settings: T/C endpoint: median tumor weight (est.), higher T/C = larger tumour; for T/C: evaluated on day 20
How it was run: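 Transplantable tumor in mice; compound-treated vs vehicle-dosed controls. Measured survival or tumor size; value = T ÷ C.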

[1] = dose: 50.0 mg/kg/injection, schedule: Q07DX002 (ip), vehicle: saline
[2] = dose: 800.0 mg/kg/injection, schedule: Q07DX002 (ip), vehicle: saline
[3] = dose: 400.0 mg/kg/injection, schedule: Q07DX002 (ip), vehicle: saline
[4] = dose: 100.0 mg/kg/injection, schedule: Q07DX002 (ip), vehicle: saline
[5] = dose: 100.0 mg/kg/injection, schedule: Q07DX002 (ip), vehicle: Klucel (hydroxypropylcellulose) (HPC)

SMILES: N=[N+]=CC(=O)OCC(N)C(=O)O (centres undefined)
- T/C (dose: 12.5 mg/kg/injection, schedule: Q07DX002 (ip), vehicle: water): 126 % of control
- survivor count (dose: 50.0 mg/kg/injection, schedule: Q07DX003 (ip), vehicle: clinical formulation): 6 of 10
- survivor count (dose: 100.0 mg/kg/injection, schedule: Q07DX002 (ip), vehicle: water): 0 of 10 on day 20

SMILES: Nc1nc(F)nc2c1ncn2C1OC(COP(=O)(O)O)C(O)C1O (centres undefined)
- T/C [1]: 143 % of control
- survivor count [2]: 6 of 10 on day 20

SMILES: CN1CCN(c2ccc3nc(-c4ccc5nc(-c6ccc(O)cc6)[nH]c5c4)[nH]c3c2)CC1
- survivor count [3]: 4 of 10 on day 20
- survivor count [2]: 0 of 10 on day 20

SMILES: CC[n+]1ccc(Nc2ccc(NC(=O)c3ccc(C(=O)Nc4ccc(Nc5cc[n+](CC)c(N)n5)cc4)cc3)cc2)nc1N
- T/C (dose: 12.5 mg/kg/injection, schedule: Q07DX003 (ip), vehicle: suspension in saline): 140 % of control

SMILES: O=c1[nH]c(=O)n(C2CC(O)C(CO)O2)cc1C(F)(F)F (centres undefined)
- T/C (dose: 40.0 mg/kg/injection, schedule: Q07DX002 (ip), vehicle: saline): 130 % of control
- T/C (dose: 80.0 mg/kg/injection, schedule: Q07DX002 (ip), vehicle: saline): 128 % of control
- T/C [3]: 130 % of control

SMILES: CC(C)(C)c1ccc(CN2CCN(C(c3ccccc3)c3ccc(Cl)cc3)CC2)cc1 (centres undefined)
- T/C (dose: 128.0 mg/kg/injection, schedule: Q07DX002 (ip), vehicle: Klucel (hydroxypropylcellulose) (HPC)): 127 % of control [9 of 10 alive on day 20]

SMILES: CN(N=O)C(N)=O
- survivor count [1]: 6 of 10 on day 20
- survivor count [4]: 0 of 10 on day 20

SMILES: OCC12COCN1COC2
- T/C [2]: 132 % of control

SMILES: C[C@H](N)C(=O)N[C@@H]1[C@H]2C(=C(O)C[C@@H](O)[C@@H]2O)C(=O)O[C@]1(C)C(Cl)Cl
- survivor count (dose: 12.0 mg/kg/injection, schedule: Q07DX002 (ip), vehicle: Klucel (hydroxypropylcellulose) (HPC)): 0 of 10 on day 20 and 2 of 10 on day 20

SMILES: C/C(=N\N=C(/[Se])N1CC2CCC(CC2)C1)c1ccccn1
- T/C (dose: 1.5 mg/kg/injection, schedule: Q07DX002 (ip), vehicle: Klucel (hydroxypropylcellulose) (HPC)): 141 % of control

SMILES: COc1cc(C(=O)N/N=C/c2cccc([N+](=O)[O-])c2)cc(OC)c1OC
- T/C (dose: 400.0 mg/kg/injection, schedule: Q07DX002 (ip), vehicle: saline with Tween-80): 131 % of control [9 of 10 alive on day 20]
- T/C (dose: 800.0 mg/kg/injection, schedule: Q07DX002 (ip), vehicle: saline with Tween-80): 140 % of control [8 of 10 alive on day 20]

SMILES: O=c1cc(-c2ccccc2)[nH]c2c1CCCC2
- T/C (dose: 450.0 mg/kg/injection, schedule: Q07DX002 (ip), vehicle: saline with Tween-80): 128 % of control
- survivor count (dose: 1800.0 mg/kg/injection, schedule: Q07DX002 (ip), vehicle: saline with Tween-80): 5 of 9 on day 20
- survivor count (dose: 3600.0 mg/kg/injection, schedule: Q07DX002 (ip), vehicle: saline with Tween-80): 3 of 10 on day 20

SMILES: NC(=O)c1ncn2c(=O)n(CCCl)nnc12
- survivor count [5]: 0 of 10 on day 20, 1 of 10 on day 20, 4 of 10 on day 20
- survivor count [4]: 4 of 10 on day 20 and 6 of 10 on day 20

SMILES: CN1CCN(c2ccc([N+](=O)[O-])c3no[n+]([O-])c23)CC1
- T/C (dose: 10.0 mg/kg/injection, schedule: Q07DX002 (ip), vehicle: saline with Tween-80): 125 % of control
- survivor count (dose: 80.0 mg/kg/injection, schedule: Q07DX002 (ip), vehicle: saline with Tween-80): 2 of 10 on day 20
- survivor count (dose: 160.0 mg/kg/injection, schedule: Q07DX002 (ip), vehicle: saline with Tween-80): 0 of 10 on day 20

SMILES: O=c1oc2c(O)c(O)cc3c(=O)oc4c(O)c(O)cc1c4c23
- T/C [5]: 131 % of control
- T/C (dose: 200.0 mg/kg/injection, schedule: Q07DX002 (ip), vehicle: Klucel (hydroxypropylcellulose) (HPC)): 145 % of control [8 of 9 alive on day 20]

From PubChem BioAssay AID212 (DTP/NCI, 2004)
